Binding signal data for 42 sequences are collected here from publication PMC7819943, “Rice protein-binding microarrays: a tool to detect cis-acting elements near promoter regions in rice”.

The list shows a part of the results.

The assay deals with T1, OsSMF1 (Oryza sativa, UniProt Q6ZLB0 1-436).
T1 sequence: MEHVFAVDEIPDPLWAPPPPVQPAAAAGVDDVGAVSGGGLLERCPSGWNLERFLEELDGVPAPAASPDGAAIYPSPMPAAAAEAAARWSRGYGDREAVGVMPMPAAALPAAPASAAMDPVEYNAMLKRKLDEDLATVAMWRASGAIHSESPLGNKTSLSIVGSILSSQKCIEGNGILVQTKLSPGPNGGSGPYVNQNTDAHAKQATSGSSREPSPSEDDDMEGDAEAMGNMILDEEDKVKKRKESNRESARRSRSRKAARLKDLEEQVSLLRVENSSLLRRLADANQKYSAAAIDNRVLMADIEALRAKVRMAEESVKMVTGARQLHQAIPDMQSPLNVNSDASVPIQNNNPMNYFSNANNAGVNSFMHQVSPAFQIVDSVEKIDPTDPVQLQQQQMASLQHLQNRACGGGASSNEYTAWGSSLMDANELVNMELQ
Nature of the assay: protein-binding microarray (RPBM); PBS, 2% BSA, 51.3 ng/ul salmon testes DNA, 50 uM zinc acetate, 200 nM TF, 25 C, 1 h; high values mean tight binding. The conditions noted are these: protein: recombinant; tags: N-terminal polyhistidine and DsRed monomer fusion (pET32a); chain copies: 2; label: CyDye5-dUTP incorporated in the synthesized complementary strand; 3' TTTTT single-stranded linker to array surface; dsDNA, one strand shown. The gist of the method:
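The binding signal is fluorescence intensity per feature, in arbitrary units, read on an Axon 4000B scanner. Polyhistidine- and DsRed-tagged transcription factors (N-terminal fusions) from E. coli BL21-CodonPlus were purified on Ni–NTA and applied at 200 nM for 1 h at 25 °C to a double-stranded, BSA-blocked custom Agilent array in buffer with 50 µM zinc acetate.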
With “GGCGGCGAGGCCGCACCTCCTCGCCGCCACGTCGCCGGCGCGGAGTCACCTAGTGCAG”, the binding signal is 7990 fluorescence intensity (a.u.).
As to “GCTTCACTTCCCTAGCAGCGTGATAAACTGACGTCATGTGCGGAGTCACCTAGTGCAG”, the binding signal was 11700 fluorescence intensity (a.u.).
Next, “CTAGAACAATGTAAGATGCAGACTTGTAAATACATCCGTGCGGAGTCACCTAGTGCAG”: 4340 fluorescence intensity (a.u.); “TCCACCTCGGCGTCCACGTTGGACTGGACCTCCACATCGGCGGAGTCACCTAGTGCAG”: 7590 fluorescence intensity (a.u.).
Consider “TTATAAACTCGTCTCGCGATTTACTGACAAATTATGTAATCGGAGTCACCTAGTGCAG”, for which the binding signal is 4300 fluorescence intensity (a.u.).
Next, “AGCCGTAGCCCTCATTGGTACGTGGCCTCGTGGATCCACTCGGAGTCACCTAGTGCAG”: 5650 fluorescence intensity (a.u.).
With “GCCACTTTTCTCCACGTGTGCTCCCGTCCACACGTCATCCCGGAGTCACCTAGTGCAG” the figure was 12400 fluorescence intensity (a.u.); with “GTGTGTGTGTGTGTTTCAAGCTGCTGCGTCGCTGTCGTGGCGGAGTCACCTAGTGCAG”, 5210 fluorescence intensity (a.u.); with “TTTCCTTTCACGAGCCGCGCGGCGCACAGAGCGTTTGCTGCGGAGTCACCTAGTGCAG”, 3280 fluorescence intensity (a.u.).
With “AAGCTGCCCTTCTTCGCCTCGAACGCCTCCACGTCGTCCTCGGAGTCACCTAGTGCAG” the figure was 8620 fluorescence intensity (a.u.).
“ATTTGTCTTATAAGCAGTATTTTATTATCCAACCTGTGAGCGGAGTCACCTAGTGCAG”: the binding signal is 3300 fluorescence intensity (a.u.).
With “ATTGGCTGTTTCGTTTGCTATGTCATTGGCTTTCCCGCGCCGGAGTCACCTAGTGCAG” the figure was 3500 fluorescence intensity (a.u.); with “AACATAAATGTGATTCATCACCTCTAACTATTTCAGTTAGCGGAGTCACCTAGTGCAG”, 3200 fluorescence intensity (a.u.); with “CTTTTAGCAAAGGCTAATGAACTAATCTGGTTAAACTATACGGAGTCACCTAGTGCAG”, 3310 fluorescence intensity (a.u.).
With “ATCTTGCACAACTGTTGGATTCAAGTCTGAGATGAAAACACGGAGTCACCTAGTGCAG” the figure was 3380 fluorescence intensity (a.u.).
With “CGGTGGCGCGGACGTGGCCGAGCTCTGCGCCGTGGCGGCGCGGAGTCACCTAGTGCAG” the figure was 7330 fluorescence intensity (a.u.).
As for “AGGAGATGGAGGCCTGACGTGGCCTGGCTCCCCAAGGCCCCGGAGTCACCTAGTGCAG”, the binding signal was 23800 fluorescence intensity (a.u.).
With “CAACAAACAAACACGTACACAACCTTCTCAATTCTCACTACGGAGTCACCTAGTGCAG” the figure was 3180 fluorescence intensity (a.u.).
With “ATATAAAATTAACGTGGATAATCACATTTTCCTACACATTCGGAGTCACCTAGTGCAG” the figure was 3490 fluorescence intensity (a.u.); with “CTAGTTTAGCCAATTAAGCTAATCAGCCCCTCGAAACCTCCGGAGTCACCTAGTGCAG”, 3200 fluorescence intensity (a.u.).
With “GTTCCGACTATCGATGACGTAGGTACGTAAACCATCATCACGGAGTCACCTAGTGCAG” the figure was 6690 fluorescence intensity (a.u.); with “GATAGGCAAAGCTTCGAACTTTGGGCTGAAAACAAATTTTCGGAGTCACCTAGTGCAG”, 28400 fluorescence intensity (a.u.).
As for “TTACTAGTACATTTAATATATTTATTTAATGTATTTGTATCGGAGTCACCTAGTGCAG”, the binding signal was 3140 fluorescence intensity (a.u.).
With “ATGGTCTCTCTGGATCCATCCCCTCCTCTTCTTCCAATATCGGAGTCACCTAGTGCAG” the figure was 3670 fluorescence intensity (a.u.); with “GCCATGGAAACCAGTTAAACGTATTAATTTAACATATGCTCGGAGTCACCTAGTGCAG”, 4270 fluorescence intensity (a.u.); with “TTTCATTTCGTGCGCGCGAGTTTTCCTCTTAGCGTAGGCCCGGAGTCACCTAGTGCAG”, 3280 fluorescence intensity (a.u.).
With “ATGCGCGCCGCTCCTTTCCTCCCTCCGGCCGGCGCCTGTGCGGAGTCACCTAGTGCAG” the figure was 3360 fluorescence intensity (a.u.); with “AATATGAAAGAAACACATGTGCACATAACACAAAGCTATACGGAGTCACCTAGTGCAG”, 3560 fluorescence intensity (a.u.).
With “AATATGTTACACGTTTGTTTTGACACTTTCTCCGGCCTAACGGAGTCACCTAGTGCAG” the figure was 3250 fluorescence intensity (a.u.).
As to “GTTCGTTTGTCTCTTCCATTCCTGACGTGGCAAGCCTTCGCGGAGTCACCTAGTGCAG”, the binding signal was 38800 fluorescence intensity (a.u.).
Next, “AGCACATATTCATCTCACGCTTCCTTCTCACTTCTTGTCCCGGAGTCACCTAGTGCAG”: 13900 fluorescence intensity (a.u.).
With “GATACTAAGTTTCATCCAAGTCAACAGTTCTACTGCAGCTCGGAGTCACCTAGTGCAG”, the binding signal was 4080 fluorescence intensity (a.u.).
With “AGGAGGGTGATTCACTCAAAAGCATGACAGGGAGACAAATCGGAGTCACCTAGTGCAG” the figure was 4710 fluorescence intensity (a.u.); with “ATGCGCGCGGCGGCGGCATCGACGCCCTTGAGGCGGGCGCCGGAGTCACCTAGTGCAG”, 28200 fluorescence intensity (a.u.).
With “ATATGCTAATTAGCACACGTTTACTGTATCATCACATAGGCGGAGTCACCTAGTGCAG” the figure was 3760 fluorescence intensity (a.u.); with “TATGTGATCAGCTTGCTGACGTAGGACTCGGGTAGTGTCCCGGAGTCACCTAGTGCAG”, 15700 fluorescence intensity (a.u.).
With “GGATGGACGTGTGGGGCCTCGCCGTCAGCATTTGCTCCTTCGGAGTCACCTAGTGCAG” the figure was 4560 fluorescence intensity (a.u.); with “CCCCGCGGGCGCGGGAGTTCCACGTACTGAGGCTGACAGTCGGAGTCACCTAGTGCAG”, 6430 fluorescence intensity (a.u.); with “GCAACATAACCCATCCTAGATTGCTATATATTGGGACGAACGGAGTCACCTAGTGCAG”, 65500 fluorescence intensity (a.u.).
Take “GTTCCAGAAAGCTCCGTTACGAACAGTGCACGTGTCGACTCGGAGTCACCTAGTGCAG”: the binding signal is 6020 fluorescence intensity (a.u.).
With “CGGTCTCCCGGTGAGGAGCCCCACGCTCCGTCAAGGTGCTCGGAGTCACCTAGTGCAG”, the binding signal is 3220 fluorescence intensity (a.u.).
With “CGGACCGCCGCGCTTGCACCAGCATCCAGATCAGCGCCGCCGGAGTCACCTAGTGCAG”, the binding signal was 3540 fluorescence intensity (a.u.).
